Assay results from paper PMC10482377, “Septum site placement in Mycobacteria – identification and characterisation of mycobacterial homologues of Escherichia coli MinD” (Microbiology, 2023).
These are yes or no findings as the source states them, for the method shown. For part of these data: Binding seen in cells or lysates may run through a third protein. Some binding calls cover weakened binding; strength is not graded here. Sequences can lack the tags named with a protein.

Chains of the proteins cited; added tags and fusions are not shown.
UniProt O33208: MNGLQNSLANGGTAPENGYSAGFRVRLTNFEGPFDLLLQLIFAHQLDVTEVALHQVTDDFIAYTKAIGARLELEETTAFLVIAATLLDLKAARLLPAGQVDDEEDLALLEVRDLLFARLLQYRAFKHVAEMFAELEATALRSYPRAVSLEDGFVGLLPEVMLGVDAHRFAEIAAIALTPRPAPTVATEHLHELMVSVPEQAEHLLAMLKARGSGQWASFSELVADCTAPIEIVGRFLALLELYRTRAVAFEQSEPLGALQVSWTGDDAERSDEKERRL

Columns and labels:
[1] = target: T1, Rv1708 (MPFC bait fusion) (M. tuberculosis) (UniProt P9WLT1); test: split reporter
T1 sequence: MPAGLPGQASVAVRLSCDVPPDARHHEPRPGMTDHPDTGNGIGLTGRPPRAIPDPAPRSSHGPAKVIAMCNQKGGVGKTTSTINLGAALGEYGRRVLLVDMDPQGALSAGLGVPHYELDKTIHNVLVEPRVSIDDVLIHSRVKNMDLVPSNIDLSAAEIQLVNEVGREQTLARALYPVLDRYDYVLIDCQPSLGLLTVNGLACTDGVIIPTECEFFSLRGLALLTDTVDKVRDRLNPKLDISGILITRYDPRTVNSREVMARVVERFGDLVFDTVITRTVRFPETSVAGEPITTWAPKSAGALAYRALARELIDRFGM

[2] = target: T2, GST-Rv1708 (M. tuberculosis) (UniProt P9WLT1); test: pull-down; equimolar bait (GST-Rv1708) and prey (His-tagged) incubated O/N at 4 °C in PBS + 0.1 % Triton X-100, then GSH beads 4 h at 4 °C; washed; Western blot with anti-6xHis; both purified
T2 sequence: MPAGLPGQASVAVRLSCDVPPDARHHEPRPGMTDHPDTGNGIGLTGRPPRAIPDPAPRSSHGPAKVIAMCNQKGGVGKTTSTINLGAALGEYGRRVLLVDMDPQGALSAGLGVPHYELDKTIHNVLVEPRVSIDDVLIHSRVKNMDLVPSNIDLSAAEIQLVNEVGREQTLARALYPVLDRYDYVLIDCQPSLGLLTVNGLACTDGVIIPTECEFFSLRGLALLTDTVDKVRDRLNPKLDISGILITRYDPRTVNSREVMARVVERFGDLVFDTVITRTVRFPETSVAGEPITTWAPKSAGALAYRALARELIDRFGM

Molecule	binding [1]	binding [2]
M. tb ScpA (MPFC prey fusion) (from UniProt O33208 1-278)	binds	–
M. tb ScpA with C-terminal 6xHis-tag (from UniProt O33208 1-278)	–	binds
M. tb ParB (MPFC prey fusion) (protein, UniProt P9WIJ9 1-344) MTQPSRRKGGLGRGLAALIPTGPADGESGPPTLGPRMGSATADVVIGGPVPDTSVMGAIYREIPPSAIEANPRQPRQVFDEEALAELVHSIREFGLLQPIVVRSLAGSQTGVRYQIVMGERRWRAAQEAGLATIPAIVRETGDDNLLRDALLENIHRVQLNPLEEAAAYQQLLDEFGVTHDELAARIGRSRPLITNMIRLLKLPIPVQRRVAAGVLSAGHARALLSLEAGPEAQEELASRIVAEGLSVRATEETVTLANHEANRQAHHSDATTPAPPRRKPIQMPGLQDVAERLSTTFDTRVTVSLGKRKGKIVVEFGSVDDLARIVGLMTTDGRDKGLHRDAL	binds	–
